System: normal human epidermal cells
Assay: protein content in the disrupted cell suspension (BCA Protein Assay)
Type: cell-based
Settings: Conc. 10.00 μmol/L, cultivation for 24 hours

SMILES: COP(=O)(CC[C@H](N)C(=O)O)Oc1cccc(CC(=O)O)c1 (mixture of isomers) [Nahlsgen, DL-2-amino-4-[(RSp)-(3-carboxymethylphenoxy)(methoxy)phosphoryl]butanoic acid]
- Protein (μg/well) Mean: 13.9 μg/well

Source: patent US10774098B2, “Nahlsgen optical resolution method” (KYOTO UNIVERSITY, priority 2016, dated 2020)
